This note sets out measurements from the supplement of paper PMC8551327.

Some of the results follow. No stated cut-off is given here; in the data, active = 1.25 or more and inactive = the rest. Repeats are few or missing, and single values can be far off.

This test has as its system Kcc2-LUC knock-in mouse primary cortical neurons (Kcc2 promoter reporter). The test is described as follows: Kcc2 promoter-driven luciferase activity relative to vehicle control (fold of vehicle (ratio)); higher = stronger Kcc2 promoter activation (Kcc2 expression enhancer). Particulars: 100 nM; 48 h.
`O=C([O][Hg][CH2]C1COC([CH2][Hg][O]C(=O)c2ccccc2)CO1)c1ccccc1` (stereo unspecified) [P-Dioxane,5-bis[(benzoyloxymercuri)methyl]-]: the “Kcc2 promoter-driven luciferase activity” value was inactive: 0.92. Next, `CN(C)[C@@H]1C(=O)C(C(N)=O)=C(O)[C@@]2(O)C(=O)C3=C(O)c4c(O)ccc(Cl)c4[C@@](C)(O)[C@H]3C[C@@H]12` [Aureomycin]: inactive: 1; `COC1=C[C@]23CCCN2CCc2cc4c(cc2[C@@H]3[C@@H]1O)OCO4` [Cephalotaxine]: inactive: 1.03.

As for `C[Si](C)(CN)CN.[Cl][Pt][Cl]` [Platinum, (SP-4-2)], the “Kcc2 promoter-driven luciferase activity” value is inactive: 1.03. Next, `CC[C@@]1(O)C(=O)OCc2c1cc1n(c2=O)Cc2cc3ccccc3nc2-1` [Camptothecin]: inactive: 1; `COc1cc([C@@H]2c3cc4c(c(O)c3C[C@H]3COC(=O)[C@@H]32)OCO4)cc(OC)c1OC` [Beta-Peltatin]: inactive: 0.4.
